Data published in PubChem BioAssay AID540276 (National Center for Advancing Translational Sciences (NCATS), 2011).
About 5,400 (1.8%) of roughly 300,000 compounds were called active. Inconclusive results, whose numbers are uncertain, are shown with a selection of clear calls. The call rests on the fitted dose curve; tested in HEK293 cells. A potency beside an inconclusive call is a rough fit, not a confirmed value.

assay: qHTS for inhibitors of binding or entry into cells for Marburg Virus; conditions: Marburg virus pseudotyped entry inhibition, cell reporter; activity change, negative = inhibition: at 37.8 µM (top of the series) unless noted
On the % scale 0 is the no-effect control and ±100 the full control effect; potency means the concentration at half of the fitted maximal effect.

Row | SMILES | activity change, negative = inhibition | Potency
1 | Cc1ccc(/C=C(\NC(=O)c2ccccc2)C(=O)NCCc2ccccn2)o1 | inactive: -1.51% | 
2 | CCc1cc2c(SCC(=O)N(C)C3CCS(=O)(=O)C3)ncnc2s1 (configuration not stated) | inactive: 15.2% [at 46.1 µM] | 
3 | COc1ccc(NC(=O)Cn2c3ccccc3c3nc4n(c(=O)c32)CCS4)cc1 | inactive: -28.1% [at 46.1 µM] | 
4 | O=C(OCCN1CCOCC1)C1(c2ccccc2)CCCCC1 |  | inconclusive: 7.08 µM [inhibitor, partial curve]
5 | CC(=O)c1ccc(N2C(=O)NC3(CCCCC3)C2=O)cc1 |  | inconclusive: 10 µM [activator, partial curve]
6 | COc1ccc(CNC(=O)CN(C(=O)c2csnn2)c2ccc(F)cc2)cc1 | inactive: -0.225% [at 46.1 µM] | 
7 | Cc1cc(/C=C(\C#N)C(=O)OCC#N)c(C)n1CC(C)C | inactive: -16.6% [at 46.1 µM] | 
8 | COC(=O)CN1C(C(=O)c2ccccc2)=C(OC(=O)c2ccc(C)cc2)c2ccccc2S1(=O)=O |  | inconclusive: 0.562 µM [inhibitor, full curve, poor fit]
9 | COc1cc(C2C(C#N)=C(N)Oc3c2oc(CO)cc3=O)cc(OC)c1OC (configuration not stated) |  | inconclusive: 6.51 µM [activator, single point]
10 | Cc1ccc(S(=O)(=O)N(C)C)cc1NC(=O)COc1ccccc1C(=O)Nc1ccccc1 |  | inconclusive: 35.5 µM [inhibitor, single point]
11 | CC(=O)c1ccc(NC(=O)C(C)OC(=O)C2CC(=O)N(c3ccc4c(c3)OCCO4)C2)cc1 (configuration not stated) |  | inconclusive: 11.2 µM [activator, partial curve, poor fit]
12 | CC(C)Cc1nc2sc3c(NCc4ccco4)ncnc3c2c2c1COC(C)(C)C2 |  | inconclusive: 1.64 µM [inhibitor, full curve]
13 | COC(=O)N/N=C1\CCCc2ccccc21 | inactive: -0.722% | 
14 | CCc1cccc(NC(=O)CN(c2ccc(C)cc2)S(=O)(=O)c2cccs2)c1 |  | inconclusive: 35.5 µM [inhibitor, single point]
15 | O=C(Nc1ccc(F)cc1)Nc1ccc2snnc2c1 |  | inconclusive: 5.62 µM [activator, single point]
16 | Cc1csc(NC(=O)c2ccoc2C)n1 |  | inconclusive: 23.1 µM [activator, single point]
17 | O=C1NC(=O)C(=Cc2ccc(Cl)cc2Cl)S1 |  | inconclusive: 7.08 µM [inhibitor, partial curve, poor fit]
18 | O=C(NCc1cccnc1)/C(=C\c1ccc(-c2ccc(Br)cc2)o1)S(=O)(=O)c1ccccc1 |  | inconclusive: 1 µM [inhibitor, full curve, poor fit]
19 | CCOC(=O)c1ccccc1NC(=O)COC(=O)c1c(CC)noc1C | inactive: -11.6% | 
20 | COc1ccccc1OCC(=O)N(Cc1nc(-c2ccccc2)no1)C(C)C |  | inconclusive: 6.31 µM [activator, single point]
21 | CC(C)Cc1ccc(C(C)C(=O)Nc2cccnc2)cc1 (configuration not stated) |  | inconclusive: 1.78 µM [inhibitor, full curve]
22 | COc1cccc(CNC(=O)CSc2nnc3c(n2)[nH]c2ccccc23)c1 |  | inconclusive: 35.5 µM [inhibitor, single point]
23 | CC(C)(C)OC(=O)N1CCC(c2c(C(=O)N3CCN(C4CCCCC4)CC3)cnn2-c2ccc(F)cc2)CC1 | inactive: 27.5% [at 46.1 µM] | 

Row | SMILES | activity change, negative = inhibition | Potency
24 | Cc1cc(C)cc(Nc2c3c(nc4ncnn24)CCC3)c1 |  | inconclusive: 35.5 µM [inhibitor, partial curve, poor fit]
25 | Cc1cc(C(=O)Nc2ccc(C(=O)O)cc2)c(C)o1 | inactive: 6.66% [at 46.1 µM] | 
26 | COc1ccc(C(=O)Nc2ccc(Cl)cn2)cc1Cl | inactive: 1.88% | 
27 | Cc1cccc2cc(CN(Cc3cccs3)C3(c4nnnn4C4CCCC4)CCCC3)c(=O)[nH]c12 |  | inactive
28 | Cc1ccc(C)c(N2CCN(C(=O)C3CCN(c4nnc(N5CCCC5=O)s4)CC3)CC2)c1 |  | inconclusive: 35.5 µM [inhibitor, single point]
29 | Cc1ccc(C)c(NC(=S)N=Nc2c(O)n(C)c3ccc(S(=O)(=O)N4CCOCC4)cc23)c1 |  | inconclusive: 7.3 µM [inhibitor, partial curve, poor fit]
30 | O=C(Oc1cccc(C(=S)N2CCOCC2)c1)c1ccc([N+](=O)[O-])cc1 |  | inconclusive: 31.6 µM [activator, single point]
31 | CC(C)Cn1cc(C(=O)N2CCC(C)CC2)c2c3ccccc3n(C)c2c1=O |  | inconclusive: 35.5 µM [inhibitor, single point]
32 | CCn1nc(C(=O)NNC(=O)COc2ccccc2C)c2ccccc2c1=O |  | inconclusive: 1.26 µM [activator, single point]
33 | CC(=O)c1cccc(NC(=S)NCCC2=CCCCC2)c1 |  | inconclusive: 2.82 µM [inhibitor, full curve, poor fit]
34 | O=C(CSc1ccc(Cl)cc1)N1N=CCC1c1ccccc1 (configuration not stated) | inactive: -39% | 
35 | CCOc1ccc(S(=O)(=O)N2CCCCC2)cc1NC(=O)c1ccccc1 | inactive: 7.67% [at 46.1 µM] | 
36 | O=C(CCc1nnc(-c2ccc(-c3ccccc3)cc2)o1)N1CCCCC1 |  | inconclusive: 2.82 µM [activator, partial curve, poor fit]
37 | N#Cc1c(Cl)nc(Cl)c2c1CCN(Cc1ccccc1)C2 |  | inconclusive: 1.84 µM [inhibitor, partial curve, poor fit]
38 | O=C(CSc1ncnc2sc(-c3ccccc3)cc12)NC1CCS(=O)(=O)C1 (configuration not stated) |  | inconclusive: 35.5 µM [inhibitor, single point]
39 | COc1cccc(NC(=O)C2(S(=O)(=O)c3ccc(Cl)cc3)CC2)c1 | inactive: 4.18% [at 46.1 µM] | 
40 | Nc1nc(CSc2ccc(Cl)cc2)nc(N2CCCCC2)n1 |  | inconclusive: 35.5 µM [inhibitor, single point]
41 | C=CCN1C(=O)NC(=O)/C(=C/c2ccc(OC)c(COc3ccc(NC(C)=O)cc3)c2)C1=O | inactive: -7.33% [at 46.1 µM] | 
42 | CC1=C(C(=O)OC2CCCCC2)C(c2ccccc2F)NC(=O)N1 (configuration not stated) |  | inconclusive: 8.91 µM [inhibitor, partial curve, poor fit]
43 | COc1ccc(Cl)cc1C1CC(=O)Nc2cc3c(cc21)OCCO3 (configuration not stated) |  | inconclusive: 7.94 µM [inhibitor, single point]
44 | CCCn1c(/N=C/c2cc(OC)ccc2O)nc2ccccc21 | inactive: 4.58% | 
45 | CCCCNc1sc(S(=O)(=O)CCC)nc1S(=O)(=O)c1ccc(C)cc1 |  | inconclusive: 6.31 µM [inhibitor, partial curve, poor fit]
46 | COc1ccc(S(=O)(=O)N2CCC(C(=O)N3CCc4ccccc4C3)CC2)cc1Cl | inactive: 4.05% | 

Some values from the results shown.
CC1=C(C(=O)OC2CCCCC2)C(c2ccccc2F)NC(=O)N1 (configuration not stated) – Potency: inconclusive: 8.91 µM [inhibitor, partial curve, poor fit]
CC(=O)c1cccc(NC(=S)NCCC2=CCCCC2)c1 – Potency: inconclusive: 2.82 µM [inhibitor, full curve, poor fit]
Cc1cccc2cc(CN(Cc3cccs3)C3(c4nnnn4C4CCCC4)CCCC3)c(=O)[nH]c12 – Potency: inactive

Further entries:

Row | SMILES | activity change, negative = inhibition | Potency
47 | CCCCCCCNC(=O)C1CC(=O)N(C)C(=Nc2ccc(OC)cc2)S1 (configuration not stated) |  | inconclusive: 0.1 µM [inhibitor, full curve, poor fit]
48 | CCOc1ccccc1NC(=O)CCc1c(C)nc2c3cccnc3nn2c1C | inactive: 4.16% [at 46.1 µM] | 
49 | CC(C)CNC(C)C(=O)Nc1ccc(S(N)(=O)=O)cc1 (configuration not stated) |  | inconclusive: 1.58 µM [inhibitor, partial curve, poor fit]
50 | Cn1c(SCC(=O)Nc2cccc(NC(=O)c3cccs3)c2)nnc1-c1ccncc1 |  | active: 12.6 µM
51 | COCCCn1c(Cc2csc(Nc3ccc(F)cc3)n2)nnc1SCC(N)=O |  | inconclusive: 22.4 µM [inhibitor, single point]
52 | CC(C)(C)n1nnnc1C(c1cccs1)N(Cc1ccccc1)Cc1ccco1 (configuration not stated) |  | inconclusive: 11.2 µM [inhibitor, partial curve, poor fit]
53 | O=C(CSc1nc2ccccc2c(=O)n1Cc1ccc(Cl)cc1)NCc1cccs1 |  | inconclusive: 4.11 µM [inhibitor, single point]
54 | CCOC(=O)N1CCN(S(=O)(=O)c2ccc(C(=O)N(CCN(CC)CC)c3nc4ccc(C)cc4s3)cc2)CC1 |  | inconclusive: 35.5 µM [inhibitor, single point]
55 | CCCOc1ccc(C(=O)O/N=C(\CC)c2ccc(C)cc2)cc1 |  | inconclusive: 35.5 µM [activator, single point]
56 | COC(=O)c1ccc(/C=N/Nc2nc(-c3ccc(C)cc3)cs2)cc1 |  | inconclusive: 1.41 µM [inhibitor, partial curve, poor fit]
57 | O=C(Nc1ccc(OC(F)(F)F)cc1)C1CCCCN1S(=O)(=O)c1ccccc1 (configuration not stated) |  | inconclusive: 35.5 µM [inhibitor, single point]
58 | CCS(=O)(=O)N1Cc2ccccc2CC1C(=O)Nc1nc2ccccc2s1 (configuration not stated) |  | inconclusive: 14.1 µM [inhibitor, partial curve, poor fit]
59 | Cc1cccc(CSc2nc3sc(C)c(C)c3c(=O)n2Cc2ccco2)c1 | inactive: 14.8% | 
60 | O=C(NCc1cccs1)c1ccc(S(=O)(=O)N2CCCCC2)cc1 | inconclusive: 15.1% [activator] [at 46.1 µM] | 
61 | CC(c1ccccc1)N1CC(C(=O)N2CCN(Cc3ccc(C#N)cc3)CC2)CC1=O (configuration not stated) | inactive: -17.6% [at 46.1 µM] | 
62 | COCCCN(C(=S)Nc1cc(C)cc(C)c1)C(C)c1ccncc1 (configuration not stated) |  | inconclusive: 0.259 µM [inhibitor, partial curve, poor fit]
63 | COC(=O)c1ccc(Cl)c(NC(=O)CN2CCN(C)CC2)c1 | inactive: -2.28% | 
64 | CN1C(=O)C(CC(=O)Nc2ccc(F)cc2)N(Cc2ccco2)C1=S (configuration not stated) |  | inconclusive: 15.8 µM [inhibitor, partial curve, poor fit]
65 | Cc1cccc(Cn2nc(C)cc2NC(=O)CCCn2ccc([N+](=O)[O-])n2)c1 |  | inconclusive: 11.2 µM [inhibitor, partial curve]
66 | O=C(CCc1nc2ccccc2c(=O)[nH]1)Nc1nnc(SCc2ccccc2F)s1 |  | inconclusive: 3.55 µM [activator, partial curve]
67 | CCOC(=O)C1=C(C)NC(C)=C(C(=O)OCC)C1C(=O)OCC(=O)NCCc1ccccc1 |  | inconclusive: 3.16 µM [inhibitor, full curve]
